Assay results taken from PubChem BioAssay AID1439 (NMMLSC, 2008).
Among all 220,000 compounds or so, about 770 (0.35%) were called active. The shares of active, inactive and inconclusive entries below differ from those in the screen. No stated cut-off is given here; in the data, active means binding response below about 49% or above about 150%; inconclusive means no clear call, values can overlap the other calls; inactive means in between. Non-standard residues stand in square brackets, D forms with d. Residues, ends and D or L forms follow the SMILES beside them. ξ: configuration not given here. *: point of attachment. ξN = NC(=O)CC(N)C(=O)O; Boc = CC(C)(C)OC(=O)*

Sequences of proteins named here, by UniProt entry; tags and fusion partners are left off.
UniProt P09471, whole entry, looked up: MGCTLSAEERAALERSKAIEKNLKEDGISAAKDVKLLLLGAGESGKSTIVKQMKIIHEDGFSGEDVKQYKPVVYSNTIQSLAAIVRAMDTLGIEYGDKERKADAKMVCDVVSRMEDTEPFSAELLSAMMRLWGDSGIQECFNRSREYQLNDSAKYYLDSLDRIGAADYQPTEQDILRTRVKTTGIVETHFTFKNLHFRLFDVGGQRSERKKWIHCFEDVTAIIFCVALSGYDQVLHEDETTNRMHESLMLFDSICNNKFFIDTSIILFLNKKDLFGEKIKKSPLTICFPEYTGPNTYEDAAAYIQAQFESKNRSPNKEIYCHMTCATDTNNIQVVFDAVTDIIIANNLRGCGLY

biological target: Guanine nucleotide-binding protein G(o) subunit alpha (Homo sapiens) (UniProt P09471); test: RGS7-Galphao binding modulators, primary screen, biochemical, multiplexed bead flow cytometry (AID 1439); details: at 10 µM, actives lie on both sides;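 further: fluorescent Galphao held in activated GDP-AlF4 state binding bead-coupled RGS7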

Row | Compound | binding response (% of control)
1 | COC(C[C@@H](O)[C@H](C)[C@H](O)COCc1ccccc1)OC | inconclusive: 91.4%
2 | COc1ccc(/C=C/C(=O)Nc2nnc(C(C)C)s2)cc1OC | inconclusive: 112%
3 | CC(=O)/C(=N/Nc1ccc(Br)cc1)N1CCCc2ccccc21 | inconclusive: 110%
4 | O=C(Cn1cnc2cc([N+](=O)[O-])ccc2c1=O)Nc1ccccc1Cl | inconclusive: 83.2%
5 | Cc1ccc(S(=O)(=O)N2CCOC2CNC(=O)C(=O)NCCc2ccccc2)cc1 (configuration not stated) | inconclusive: 89.5%
6 | O=C(/C=C/c1ccco1)NCC1OCCc2ccccc21 (configuration not stated) | inconclusive: 64.4%
7 | COc1cc(OC)c(OC)cc1NC(=O)CC1COc2ccccc2O1 (configuration not stated) | inactive: 102%
8 | Nc1ccc(Cc2ccc(N)c(O)c2)cc1O | inactive: 87.5%
9 | FC(F)(F)c1cccc(Cc2noc(CN(Cc3ccccn3)CC3CCCO3)n2)c1 (configuration not stated) | inconclusive: 159%
10 | CN(C)c1ccc(C(O)P(=O)(OC2CCCCC2)OC2CCCCC2)cc1 (configuration not stated) | inconclusive: 82.7%
11 | CC(C)(C)NC(=O)COC(=O)c1ccccc1NC(=O)c1ccco1 | inconclusive: 114%
12 | CCn1cc(C2CC(=O)NC2=O)c2ccccc21 (configuration not stated) | inconclusive: 103%
13 | COc1ccc2c(c1)c(/C=N/Nc1ccc(C(=O)O)cc1)c(C)n2C | inconclusive: 110%
14 | CC(NC(=O)c1cnccn1)c1ccc(S(N)(=O)=O)cc1 (configuration not stated) | inconclusive: 90.5%
15 | C=CCn1c(O)c(N=NC(=O)C(O)c2ccccc2)c2ccccc21 (configuration not stated) | inconclusive: 33.3%
16 | Cc1ccc(C(=O)NCC(=O)N/N=C/c2sccc2C)cc1[N+](=O)[O-] | inactive: 103%
17 | Cc1ccnn1CCC(=O)O | inconclusive: 105%
18 | [N-]=C=C1C(=O)NC(=O)C([n+]2ccc(-c3ccncc3)cc2)C1c1ccccc1C(F)(F)F (configuration not stated) | inconclusive: 102%
19 | COc1ccc2nc(Cl)c(C3CC(c4ccco4)=NN3C(=O)CCCC(=O)O)cc2c1 (configuration not stated) | inconclusive: 77.1%
20 | O=C(NNC1=C(C(=O)C(F)(F)F)CCC1)c1cccnc1 | inconclusive: 113%
21 | C=C(C)C1CCC2(C(=O)O)CCC3(C)C(CCC4C5(C)C(C=O)C(O)C(C)(C)C5CCC43C)C12 (configuration not stated) | inconclusive: 112%
22 | CCOC(=O)CNC(=O)C12CC3CC(CC(C3)C1)C2 | inconclusive: 74.2%
23 | COc1cc(/C=C/C(=O)OCC(=O)NCCc2ccccc2)cc(OC)c1OC | inconclusive: 111%

Row | Compound | binding response (% of control)
24 | COc1ccc(NC(=O)N2CCN(C(=O)C(Cc3ccc(F)cc3)NC(C)=O)CC2)cc1 (configuration not stated) | inactive: 97.7%
25 | Cc1ccc2cc3c(nc2c1)OCC3 | inconclusive: 80.9%
26 | COC(=O)c1sccc1NC(=S)Nc1ccc(C)cc1 | inconclusive: 89.6%
27 | O=C1NN(c2ccccc2)C(=O)/C1=C\c1coc2ccc(O)cc2c1=O | inconclusive: 81.4%
28 | Cc1ccc(S(=O)(=O)NC(Cc2ccccc2)C(=O)O)cc1 (configuration not stated) | inconclusive: 84.1%
29 | Cc1ccccc1C1NC(c2ccccc2C)C([N+](=O)[O-])C(C)(C)C1[N+](=O)[O-] (configuration not stated) | inconclusive: 126%
30 | CC(/C=N/n1c(-c2cc(C)[nH]n2)n[nH]c1=S)=C\c1ccco1 | inconclusive: 114%
31 | S=C(Nc1cccc(Br)c1)N1CCn2cccc2C1c1cccnc1 (configuration not stated) | inactive: 102%
32 | CC1(c2ccccc2)NC(=O)N(CCOc2ccccc2)C1=O (configuration not stated) | inactive: 102%
33 | Cc1c(Cc2ccc3c(c2)OCO3)sc(NC(=O)C2CC2)c1C(N)=O | inconclusive: 98.2%
34 | CC(C)OP(=O)(OC(C)C)C(Nc1cccc(C(=O)O)c1)c1ccccc1 (configuration not stated) | inconclusive: 88.7%
35 | Cc1ccc(S(=O)(=O)N(C)C)cc1NC(=O)C(C)OC(=O)c1ccc2c(c1)OCCO2 (configuration not stated) | inconclusive: 111%
36 | CCOC(=O)C1=C(C)N=C2SCCC(=O)N2[C@@H]1c1cccs1 | inconclusive: 118%
37 | CC(c1ccon1)N(C)Cc1cn[nH]c1-c1ccc(F)cc1F (configuration not stated) | inconclusive: -253%
38 | Cc1cccc(OCC(=O)Nc2ccc3nc(C)sc3c2)c1 | inconclusive: 112%
39 | Cc1ccc(CC2CC(=O)N(c3cc(Cl)ccn3)C2=O)cc1 (configuration not stated) | inconclusive: -29.4%
40 | Cc1cc(O)c(C(C)C)cc1N=Cc1ccccc1O | inconclusive: 95.5%
41 | COc1ccc(C(=O)NCC(=O)NCC(=O)OCc2ccc(Br)cc2)cc1 | inconclusive: 84.6%
42 | CCCNC(=O)c1ccc2c(=O)c(O)c(-c3ccc(C)cc3)[nH]c2c1 | inconclusive: 61.5%
43 | COc1cc(C=O)ccc1OCC(=O)NC(C)(C)C | inactive: 105%
44 | CC(NC(=O)Cc1ccc(-c2ccccc2)cc1)c1ccccc1 (configuration not stated) | active: 263% [activator]
45 | Nc1ccc(C(=O)Oc2ccc([N+](=O)[O-])cc2)cc1 | inconclusive: 56.3%
46 | COc1ccccc1CNCC(=O)N1CC(=O)Nc2ccccc21 | inconclusive: 78.9%

2 entries drawn at random from the list so far, as already listed:
Row | Compound | binding response (% of control)
32 | CC1(c2ccccc2)NC(=O)N(CCOc2ccccc2)C1=O (configuration not stated) | inactive: 102%
34 | CC(C)OP(=O)(OC(C)C)C(Nc1cccc(C(=O)O)c1)c1ccccc1 (configuration not stated) | inconclusive: 88.7%

Next part

Row | Compound | binding response (% of control)
47 | Cc1cc(NC(=O)COn2nnc3ccc(S(C)(=O)=O)cc32)ccc1Br | inconclusive: 114%
48 | COC(=O)c1sccc1NC(=O)CC1C(=O)NCCN1C(=O)Nc1ccc(OCc2ccccc2)cc1 (configuration not stated) | inconclusive: 55.5%
49 | FC(F)(F)c1cnc(Sc2ncn[nH]2)c(Cl)c1 | inconclusive: 110%
50 | Cc1cccc(C)c1NC(=O)C[n+]1cc(-c2ccccc2)n2c1CCC2 | inconclusive: 70.4%
51 | Oc1ccccc1C=NCCCCCCN=Cc1ccccc1O | inconclusive: 113%
52 | Cc1ccnc2nc(C(=O)OCC(=O)NC(=O)NCc3ccco3)nn12 | inconclusive: 83.2%
53 | COCCn1c(C)cc(C(=O)COC(=O)c2cccc(O)c2)c1C | inconclusive: 97.6%
54 | O=C1NCN(CCO)CN1 | inconclusive: 106%
55 | CCc1cccc(NC(=O)C2CCCN2S(=O)(=O)c2ccc3c(c2)n(C)c(=O)c(=O)n3C)c1 (configuration not stated) | inconclusive: 164%
56 | Cc1csc(NC(=O)c2ccc(C(=O)Nc3nc(C)cs3)cc2)n1 | inconclusive: 83.8%
57 | O=c1ccnc2n1COCS2 | inconclusive: 58.9%
58 | O=C(O)/C=C\C(=O)Nc1cc(O)ccc1[N+](=O)[O-] | inconclusive: 85.4%
59 | COc1cccc(-c2nnc(-c3ccccc3NC(=O)c3ccc(C(C)(C)C)cc3)o2)c1 | inconclusive: -106%
60 | CN1C(C(=O)NCC2CC2)CC2Cn3c(nc4cc(Cl)c(Cl)cc43)C21 (configuration not stated) | inconclusive: 92.8%
61 | Cc1ccccc1C(=O)Nc1nc(SCc2ccc(Cl)cc2)n[nH]1 | inconclusive: 953%
62 | O=C(Nc1ccc(Cl)cc1)N1N=CCC1c1ccccc1 (configuration not stated) | inconclusive: 101%
63 | O=C(Nc1ccccc1)c1cn2ccccc2n1 | inconclusive: 118%
64 | O=C(Cc1ccc(-n2c(=O)c3ccccc3n(CC(=O)Nc3ccc(F)cc3F)c2=O)cc1)NCc1ccco1 | inconclusive: 82.4%
65 | CC/C(O)=C1\C(=O)CCCC1=NCCc1c(C)[nH]c2ccc(C)cc12 | inconclusive: 95.9%
66 | COc1cc(C(CCN2CCCCC2)c2c(OC)cc(OC)c3c(C)cc(=O)oc23)cc(OC)c1OC (configuration not stated) | inconclusive: 106%
67 | CC1CN(C(=O)c2c(Br)cnn2C)CC(C)O1 (configuration not stated) | inactive: 97.4%
68 | Cc1cc(C)n(CCNC(=O)c2cc(COc3ccc4ncccc4c3)on2)n1 | inconclusive: 62.7%
69 | O=C(Nc1ccc2c(c1)OCO2)C1CCN(C(=O)c2ccc(Cl)cc2)CC1 | inactive: 101%

Row | Compound | binding response (% of control)
70 | Cc1cccc(Nc2c3c(nc4ccccc24)CCC3)c1 | inconclusive: 38.4%
71 | CC(OC(=O)CNC(=O)C12CC3CC(CC(C3)C1)C2)C(=O)Nc1ccc(N2CCOCC2)cc1 (configuration not stated) | inactive: 105%
72 | CC(=O)/C=C(\C)Nc1ccccc1O | inconclusive: 43.7%
73 | COC(OC)c1ccc(C#N)c(SCc2ccccc2)n1 | inconclusive: 80.2%
74 | FC(F)Oc1ccc(/C=N/N2CCCCC2)c(OC(F)F)c1 | inconclusive: 102%
75 | O=C(O)/C=C\c1cc2c(cc1[N+](=O)[O-])OCO2 | inconclusive: 45.2%
77 | CCOC(=O)CNC(=O)C(CC(N)=O)NC(=O)OC(C)(C)C (configuration not stated) (Boc-[ξN]-Gly-OEt) | inconclusive: 92.5%
78 | N#C/C(C(N)=O)=C1/SC=C(c2ccccc2)N1c1ccccc1 | inconclusive: 125%
79 | Cc1cnc(NS(=O)(=O)c2ccccc2)c(Br)c1 | inconclusive: 120%
80 | Cc1ccc(C)n1CCN1CCN(C(=O)c2ccc(Cl)cc2)CC1 | inconclusive: -1.07%
81 | COc1ccc([N+](=O)[O-])cc1NCc1ccco1 | inconclusive: 116%
82 | CCOc1ccccc1OCCCC(=O)N1CCN(S(=O)(=O)c2cccc(F)c2)CC1 | inactive: 99.9%
83 | COc1ccc2c(c1)C1NC(=S)NC(C)(O2)C1C(=O)Nc1ccccc1C (configuration not stated) | inactive: 101%
84 | CS/C(=N\S(=O)(=O)c1cccs1)NC(=O)CSc1nc2ccccc2s1 | inactive: 102%
85 | O=[N+]([O-])c1ccccc1S(=O)(=O)NCc1cccnc1 | inactive: 92%
86 | CCOc1cc(/C=N/NC(=O)C(N)=O)cc(Br)c1O | inconclusive: 122%
87 | Cc1nnsc1C(=O)NNc1c(Cl)cccc1Cl | inconclusive: -49%
88 | O=C(COC(=O)c1ccncc1)c1ccc(Cl)c(Cl)c1 | inactive: 98.4%
89 | COc1cc(/C=C2/C(=O)NN(c3ccc(F)cc3)C2=O)cc([N+](=O)[O-])c1O | inconclusive: 106%
90 | N#C/C(=C/c1ccc(N2CCCCC2)o1)C(=O)Nc1ccc(Cl)cc1 | inactive: 124%
91 | CCOCCCNC(=O)c1cc(Sc2nnc(C)s2)nc2ccccc12 | inconclusive: -15.6%
92 | Cc1onc(-c2ccccc2)c1C(=O)OCC(=O)Nc1ccc2c(c1)OCO2 | inactive: 99.5%
